This passage reports resistant indexes results from paper PMC9138683, “Decoding the Role of Melatonin Structure on Plasmodium falciparum Human Malaria Parasites Synchronization Using 2-Sulfenylindoles Derivatives” (Biomolecules, 2022).

In this data set the test system is Plasmodium falciparum Dd2 (chloroquine-resistant). As to the kind of experiment: In vitro drug susceptibility assay, Dd2 strain (flow cytometry, SYBR Green I / MitoTracker Deep Red). In kind it is cell-based. The note with it: CQR Dd2 versus CQS 3D7. As for the experimental part: The cultures were maintained under an atmosphere of 5% CO2, 5% O2, and 90% N2. Fresh complete medium was provided daily, and rapid-stained (Panotico) blood smears were examined.
To evaluate the effects of synthetic compounds on the intraerythrocytic development of P. falciparum, we analyzed parasitemia by flow cytometry with 0.3% initial parasitemia and 1% hematocrit in the assay. Plates were incubated with the compounds at concentrations ranging from 0.10 to 100 µM for 72 h. Dual staining with SYBR Green I (SG-I) (Invitrogen, Waltham, MA, USA) and MitoTracker Deep Red (MT-Red) (Invitrogen) were used to label nucleic acids and mitochondria, respectively. Approximately 10,000 cells were counted by an Accuri C6 (Becton Dickinson, San Jose, CA, USA) and analyzed by FlowJo 5 software. Parasitemia was determined from the analysis of dot plots (side scatter versus fluorescence).
We determined the susceptibility of P. falciparum to the indole compounds and investigated whether CQR parasites responded differently to the compounds. […] We determined the IC50 values for each compound by analyzing viable and non-viable parasites after compound treatment, represented in dot plots (Figure 1H).
A general note: Flow cytometry measures light scatter and fluorescence of single cells or particles in a stream.

On to `COC(=O)Cc1c(SCCCCCCCCCCC(=O)O)[nH]c2ccccc12` [Compound 20], for which the resistant indexes came out at 0.30.
